The list is a part of this screen's results and no random one: it gathers tests that were run many times, whatever their T/C, doses with no T/C, and many T/C values between a quarter and a half above the control. Further doses and runs are listed elsewhere. T/C gives the treated animals as a percentage of the vehicle group. Some doses have a count of surviving animals in place of a T/C: the source files T/C as zero there, which appears to mark a toxic dose or a test without result, not a measured value. Some survivor counts are full or nearly so, which does not show that the dose was tolerated: survival well below the control is almost never listed, so the zero probably covers shortened survival too. Survivors were counted at the toxicity check, usually on the fifth day, unless a day is given; later deaths do not show. Schedule codes are those of the source, taken here to give the interval after Q, in days (D) or hours (H), and the number of doses after X. Some entries hold several experiments; their values stand side by side, smallest first. For survival time, this PubChem deposit counts one and a half times the control or more as active, and values a quarter to a half above the control carry no call in these data; other NCI protocols may use other cut-offs.
System: CD2F1 mice, L1210 leukemia ip, survival T/C
Assay: NCI In Vivo Anticancer Drug Screen. Data for tumor model L1210 Leukemia (intraperitoneal) in CD2F1 (CDF1) mice
Settings: higher T/C = longer survival
Summary of the method: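 Mice carrying a transplanted tumor received test compound or vehicle alone. The value is the measurement in the treated group divided by that in the vehicle-treated control group.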

[1] = T/C endpoint: mean survival time, dose: 400.0 mg/kg/injection, schedule: Q04DX003 (ip), vehicle: saline with Tween-80
[2] = T/C endpoint: mean survival time, dose: 200.0 mg/kg/injection, schedule: Q04DX003 (ip), vehicle: saline with Tween-80
[3] = T/C endpoint: mean survival time, dose: 200.0 mg/kg/injection, schedule: Q01DX009 (ip), vehicle: saline with Tween-80
[4] = T/C endpoint: mean survival time, dose: 200.0 mg/kg/injection, schedule: Q04DX003 (ip), vehicle: saline
[5] = T/C endpoint: mean survival time, dose: 100.0 mg/kg/injection, schedule: Q04DX003 (ip), vehicle: saline with Tween-80
[6] = T/C endpoint: mean survival time, dose: 200.0 mg/kg/injection, schedule: Q04DX002 (ip), vehicle: saline with Tween-80
[7] = T/C endpoint: mean survival time, dose: 400.0 mg/kg/injection, schedule: Q04DX002 (ip), vehicle: saline with Tween-80
[8] = T/C endpoint: mean survival time, dose: 300.0 mg/kg/injection, schedule: Q01DX001 (ip), vehicle: saline
[9] = T/C endpoint: mean survival time, dose: 400.0 mg/kg/injection, schedule: Q01DX009 (ip), vehicle: saline with Tween-80
[10] = T/C endpoint: mean survival time, dose: 100.0 mg/kg/injection, schedule: Q01DX009 (ip), vehicle: saline with Tween-80

## O=S(=O)(O)c1cc(O)ccc1O.O=S(=O)(O)c1cc(O)ccc1O.[NH-]C1CCCCC1[NH-].[Pt+2]
T/C endpoint: median survival time, dose: 6.25 mg/kg/injection, schedule: Q04DX003 (ip), vehicle: saline
  T/C: 130 % of control
T/C endpoint: median survival time, dose: 12.5 mg/kg/injection, schedule: Q04DX003 (ip), vehicle: saline
  T/C: 133 % of control
T/C endpoint: median survival time, dose: 25.0 mg/kg/injection, schedule: Q04DX003 (ip), vehicle: saline
  T/C: 127 % of control

## [O-][n+]1c(Cl)nc(Cl)c(Cl)c1C(Cl)(Cl)Cl
T/C endpoint: mean survival time, dose: 50.0 mg/kg/injection, schedule: Q04DX003 (ip), vehicle: other
  survivor count: 2 of 3

## C/C(CCC(=O)O)=N\NC(N)=O
[1]
  survivor count: 6 of 6

## CC1CCCC2C(=O)OC(=O)C12 (stereo not given)
T/C endpoint: mean survival time, dose: 400.0 mg/kg/injection, schedule: Q04DX003 (ip), vehicle: Klucel (hydroxypropylcellulose) (HPC)
  survivor count: 2 of 3

## COc1ccc(N=C2C=CC(=O)O2)cc1
[2]
  survivor count: 1 of 6
[1]
  survivor count: 3 of 6

## Cc1cc(C)c(C)c(S(=O)(=O)O)c1C
[3]
  survivor count: 2 of 6
[1]
  survivor count: 2 of 6

## CC(=O)OCCC(C)Nc1ccnc2cc(Cl)ccc12 (stereo not given)
[2]
  survivor count: 1 of 6
[1]
  survivor count: 0 of 6

## N#Cc1cccc(CN2CCCNCC2)c1
T/C endpoint: mean survival time, dose: 200.0 mg/kg/injection, schedule: Q01DX009 (ip), vehicle: water
  survivor count: 3 of 6

## Cn1ncc2c1C(=O)c1nc(-c3ccccc3)c(-c3ccccc3)nc1C2=O
[4]
  survivor count: 6 of 6

## CN1CCN(c2ccc([N+](=O)[O-])c3no[n+]([O-])c23)CC1
T/C endpoint: mean survival time, dose: 10.0 mg/kg/injection, schedule: Q01DX009 (ip), vehicle: saline
  T/C: 125 % of control
T/C endpoint: mean survival time, dose: 15.0 mg/kg/injection, schedule: Q01DX009 (ip), vehicle: saline
  T/C: 125 % of control
T/C endpoint: mean survival time, dose: 20.0 mg/kg/injection, schedule: Q01DX009 (ip), vehicle: saline
  T/C: 132 % of control
T/C endpoint: mean survival time, dose: 80.0 mg/kg/injection, schedule: Q01DX009 (ip), vehicle: saline with Tween-80
  survivor count: 4 of 6

## CCc1nc2cc(C)c(C)cc2[nH]1
[5]
  survivor count: 6 of 6
[2]
  survivor count: 0 of 6
[1]
  survivor count: 0 of 6

## C[n+]1ccc2ccccc2c1SC1CCC2CC3CC2C1C3 (stereo not given)
T/C endpoint: mean survival time, dose: 40.0 mg/kg/injection, schedule: Q01DX009 (iv), vehicle: methylcellulose (MC)
  survivor count: 3 of 6

## Cc1c(Cl)ccc(OCC2=NCCN2)c1C
[6]
  survivor count: 1 of 3
[7]
  survivor count: 0 of 3

## C[n+]1c(-c2ccc(/C=N/NC(=O)c3ccc(C(=O)N/N=C/c4ccc(-c5cn6ccccc6[n+]5C)cc4)cc3)cc2)cn2ccccc21
T/C endpoint: median survival time, dose: 50.0 mg/kg/injection, schedule: Q01DX005 (ip), vehicle: saline with Tween-80
  T/C: 142 % of control
T/C endpoint: median survival time, dose: 555.55 mg/kg/injection, schedule: Q01DX005 (ip), vehicle: saline with Tween-80
  T/C: 141 % of control
T/C endpoint: median survival time, dose: 925.91 mg/kg/injection, schedule: Q01DX005 (ip), vehicle: saline with Tween-80
  T/C: 137 % of control

## CN(C)C(c1ccccc1)C(O)c1ccccc1 (stereo not given)
[8]
  survivor count: 0 of 6

## CC(O)CNCCNc1ccc(NCCNCC(C)O)c2c1C(=O)c1c(O)ccc(O)c1C2=O (stereo not given)
T/C endpoint: mean survival time, dose: 1.0 mg/kg/injection, schedule: Q01DX005 (ip), vehicle: water
  T/C: 125 % of control
T/C endpoint: mean survival time, dose: 2.0 mg/kg/injection, schedule: Q01DX005 (ip), vehicle: water
  T/C: 131 % of control
T/C endpoint: mean survival time, dose: 4.0 mg/kg/injection, schedule: Q01DX005 (ip), vehicle: water
  T/C: 143 % of control

## C=CC[As](=O)(O)CCC
[3]
  survivor count: 0 of 6
[9]
  survivor count: 0 of 6

## N=C(N)SCc1cccc([N+](=O)[O-])c1
[6]
  survivor count: 0 of 3
[7]
  survivor count: 0 of 3

## O=C1C=CC(=O)c2ccccc21
T/C endpoint: mean survival time, dose: 5.0 mg/kg/injection, schedule: Q04DX003 (ip), vehicle: saline with Tween-80
  survivor count: 5 of 6
T/C endpoint: mean survival time, dose: 10.0 mg/kg/injection, schedule: Q04DX003 (ip), vehicle: saline with Tween-80
  survivor count: 0 of 6
T/C endpoint: mean survival time, dose: 20.0 mg/kg/injection, schedule: Q04DX003 (ip), vehicle: saline with Tween-80
  survivor count: 0 of 6
T/C endpoint: mean survival time, dose: 40.0 mg/kg/injection, schedule: Q04DX003 (ip), vehicle: saline with Tween-80
  survivor count: 0 of 6
[5]
  survivor count: 0 of 6
[2]
  survivor count: 0 of 6
[1]
  survivor count: 0 of 6

## CN=C1C=C/C(=N/N=c2/ccn(O)cc2C)C=C1C
[6]
  survivor count: 3 of 3
[7]
  survivor count: 0 of 3

## O=C(CCCN1CCN2Cc3[nH]c4ccccc4c3CC2C1)c1ccc(F)cc1 (stereo not given)
T/C endpoint: mean survival time, dose: 25.0 mg/kg/injection, schedule: Q01DX009 (ip), vehicle: saline with Tween-80
  survivor count: 4 of 6
T/C endpoint: mean survival time, dose: 50.0 mg/kg/injection, schedule: Q01DX009 (ip), vehicle: saline with Tween-80
  survivor count: 2 of 6
[10]
  survivor count: 0 of 6

## c1ccc(-c2nnc(-c3ccccn3)o2)nc1
[6]
  T/C: 144 % of control

## Nc1nc(N)c2nc(CNc3ccc(C(=O)NC(CCC(=O)O)C(=O)O)cc3)ccc2n1 (stereo not given)
T/C endpoint: mean survival time, dose: 0.5 mg/kg/injection, schedule: Q01DX005 (ip), vehicle: sodium bicarbonate
  survivor count: 5 of 6
T/C endpoint: mean survival time, dose: 1.0 mg/kg/injection, schedule: Q01DX005 (ip), vehicle: sodium bicarbonate
  survivor count: 3 of 6
T/C endpoint: mean survival time, dose: 2.0 mg/kg/injection, schedule: Q01DX005 (ip), vehicle: sodium bicarbonate
  survivor count: 4 of 6
T/C endpoint: mean survival time, dose: 4.0 mg/kg/injection, schedule: Q01DX005 (ip), vehicle: sodium bicarbonate
  survivor count: 3 of 6
T/C endpoint: mean survival time, dose: 8.0 mg/kg/injection, schedule: Q01DX005 (ip), vehicle: sodium bicarbonate
  survivor count: 3 of 6
T/C endpoint: mean survival time, dose: 16.0 mg/kg/injection, schedule: Q01DX005 (ip), vehicle: sodium bicarbonate
  survivor count: 2 of 6
T/C endpoint: mean survival time, dose: 125.0 micrograms/kg/injection, schedule: Q01DX005 (ip), vehicle: sodium bicarbonate
  T/C: 134 % of control
T/C endpoint: mean survival time, dose: 250.0 micrograms/kg/injection, schedule: Q01DX005 (ip), vehicle: sodium bicarbonate
  T/C: 138 and 140 % of control
T/C endpoint: mean survival time, dose: 500.0 micrograms/kg/injection, schedule: Q01DX005 (ip), vehicle: sodium bicarbonate
  survivor count: 3 of 6 and 6 of 6

## N#CC(=C=N)N=C(F)C(C#N)=C(C#N)C#N
T/C endpoint: mean survival time, dose: 75.0 mg/kg/injection, schedule: Q01DX001 (ip), vehicle: saline
  survivor count: 0 of 6
T/C endpoint: mean survival time, dose: 150.0 mg/kg/injection, schedule: Q01DX001 (ip), vehicle: saline
  survivor count: 0 of 6
[8]
  survivor count: 0 of 6

## c1ccc(COC2CN3CCC2CC3)cc1 (stereo not given)
[10]
  survivor count: 3 of 6

## Cc1ccc2c(C)nc(N=C(N)N)nc2c1
T/C endpoint: mean survival time, dose: 75.0 mg/kg/injection, schedule: Q01DX009 (ip), vehicle: saline
  survivor count: 0 of 6

## COc1ccc(C(O)(c2ccccc2)C(OC(=O)CCl)c2ccccc2)cc1 (stereo not given)
T/C endpoint: mean survival time, dose: 100.0 mg/kg/injection, schedule: Q01DX001 (ip), vehicle: saline with Tween-80
  survivor count: 6 of 6

## OC(C=C(C(F)(F)F)C(F)(F)F)c1cccs1 (stereo not given)
[3]
  survivor count: 4 of 6
[9]
  survivor count: 4 of 6

## CC(=O)c1ccc2c3c(ccc([N+](=O)[O-])c13)C(=O)OC2=O
[1]
  survivor count: 1 of 6

## O=C(O)CC(=O)O.[NH-]CCC1CCCC[N-]1.[Pt+2] (stereo not given)
T/C endpoint: mean survival time, dose: 100.0 mg/kg/injection, schedule: Q04DX003 (ip), vehicle: distilled water + Tween-80
  T/C: 127 % of control
T/C endpoint: mean survival time, dose: 100.0 mg/kg/injection, schedule: Q04DX003 (ip), vehicle: water
  T/C: 138 % of control
T/C endpoint: mean survival time, dose: 200.0 mg/kg/injection, schedule: Q04DX003 (ip), vehicle: distilled water + Tween-80
  survivor count: 2 of 6
T/C endpoint: mean survival time, dose: 200.0 mg/kg/injection, schedule: Q04DX003 (ip), vehicle: water
  survivor count: 4 of 6
T/C endpoint: mean survival time, dose: 400.0 mg/kg/injection, schedule: Q04DX003 (ip), vehicle: water
  survivor count: 0 of 6

## Cc1nc2c(n1C)C(=O)c1ccccc1C2=O
[4]
  survivor count: 3 of 6
T/C endpoint: mean survival time, dose: 400.0 mg/kg/injection, schedule: Q04DX003 (ip), vehicle: saline
  survivor count: 0 of 6

## CCN(CC)c1ccc(C)cc1Cl
T/C endpoint: mean survival time, dose: 200.0 mg/kg/injection, schedule: Q04DX003 (ip), vehicle: saline sonified
  survivor count: 1 of 6
T/C endpoint: mean survival time, dose: 400.0 mg/kg/injection, schedule: Q04DX003 (ip), vehicle: saline sonified
  survivor count: 1 of 6

Reference: PubChem BioAssay AID256 (DTP/NCI, 2004)
